Test results as given in patent publication EP1944315A1.
Positions count from the first letter of the chain named. Results are given in words; binding and its absence hold for the method and conditions named. Some binding calls cover weakened binding; strength is not graded here.

Target: T1, Aβ(21-37)
T1 sequence (peptide): AEDVGSNKGAIIGLMVG
Experiment: sequenced from the IVIgG fraction bound to the Cys-Aβ(12-40) column; the single pair was not tested on its own

B1: Aβ-autoantibody from serum-IVIgG, light chain kappa IVIG_(1)_A' with heavy chain IVIG_(4)_A (antibody, V domains shown)
VH: EVQLVESGGGVVQPGGSLRLSCAASGFTFRSYWMSWVRQAPGKGLEWVASVKQDGSEKYYVDSVKGRFTISRDTSKNTLYLQMNSLRAEDTAVYYCARDASSWYRDWFDPWGQGTLVTVSS
VL: EIVLTQSPATLSLSPGERVTITCRASQSVNSYLAWYQQKPPGQAPRLLIYAGSTRATGIPDRFSGSGSGTDFTLTISRLEPEDFAVYYCQQYGSSQGTFGPGTKVDIKR
modifications: N-glycosylation at N-301
  binding: binds

B2: Aβ-autoantibody from serum-IVIgG, light chain kappa IVIG_(2)_B' with heavy chain IVIG_(5)_B (antibody, V domains shown)
VH: B1 VH with S31G, A100G
VL: B1 VL with A25E, S28G, V29I, N30R, S31N, G52A, T54S
modifications: N-glycosylation at N-301
  binding: binds
